Data taken from PubChem BioAssay AID1053133, deposited by Broad Institute (2014).

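Plate-reader measure of the Venus reporter marking one vaccinia stage in infected cells (the cell line is not named here); read time unknown.
The test concentration is not given here.
Percent change in Venus reporter signal; lower (more negative) values mean stronger inhibition of that viral stage.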

Values are in %.
How 0% and 100% were set is not given here.
Common to all entries: measured here: Venus reporter, other viral stage.
This is a side read-out of the assay, for part of the compounds, not drawn at random.

SMILES | activity change (Venus) (%)
CCCN(C)C[C@H]1Oc2ncc(C#Cc3ccc(F)cc3)cc2C(=O)N([C@@H](C)CO)C[C@H]1C | -40.5
C[C@H](CO)N1C[C@H](C)[C@H](CN(C)C(=O)c2ccccc2)OCCCC[C@H](C)Oc2ccc(NS(=O)(=O)c3ccc(Cl)cc3)cc2C1=O | -34.26
Cc1ccc(-c2ccc3c(c2)O[C@H](CN(C)Cc2ccncc2)[C@@H](C)CN([C@@H](C)CO)S3(=O)=O)cc1 | -63.8
COc1ccc(S(=O)(=O)N(C)C[C@@H]2Oc3cc(-c4cccc(F)c4)ccc3S(=O)(=O)N([C@H](C)CO)C[C@H]2C)cc1 | -36.72
C[C@@H]1CN([C@H](C)CO)S(=O)(=O)c2ccc(C#CCN(C)C)cc2O[C@H]1CN(C)Cc1ccc2c(c1)OCO2 | -33.81
C[C@@H]1CN([C@@H](C)CO)C(=O)c2c(c3ccccc3n2C)-c2ccccc2CO[C@H]1CN(C)C(=O)Nc1cccc(Cl)c1Cl | -74.67
O=C(C[C@H]1CC[C@@H]2[C@H](COC[C@H](O)CN2Cc2ccc(C(F)(F)F)cc2)O1)N1CCc2ccccc2C1 | -48.75
COc1ccc(-c2ccc([C@H]3[C@H](C#N)N(C(=O)NC4CCCCC4)[C@H]3CO)cc2)cc1 | -40.77
COc1ccc(CN(C)C[C@H]2OCCCC[C@H](C)Oc3ccc(NC(=O)Nc4ccc5c(c4)OCO5)cc3C(=O)N([C@@H](C)CO)C[C@H]2C)cc1 | -44.94
COc1cccc(S(=O)(=O)N2CC3(CN(C(=O)Nc4cccc(F)c4)[C@H](CO)c4[nH]c5cc(OC)ccc5c43)C2)c1 | -22.63
C[C@@H]1CN([C@H](C)CO)C(=O)Cc2cc(N(C)C)ccc2O[C@@H]1CN(C)Cc1ccc(Cl)c(Cl)c1 | -47.93
Cc1noc(C)c1NC(=O)Nc1ccc2c(c1)C(=O)N([C@@H](C)CO)C[C@H](C)[C@@H](CN(C)Cc1ccc(Cl)c(Cl)c1)OCCCC[C@@H](C)O2 | -74.89
Cc1noc(C)c1S(=O)(=O)Nc1ccc2c(c1)C(=O)N([C@H](C)CO)C[C@@H](C)[C@H](CN(C)Cc1ccc(C(F)(F)F)cc1)OCCCC[C@H](C)O2 | -77.79
Cc1ccc(S(=O)(=O)N[C@H]2CC[C@@H](CCn3cc(C(C)C)nn3)O[C@@H]2CO)cc1 | -28.64
CN1c2ccc(-c3cccc(F)c3)cc2[C@@H]2[C@@H](CCN2S(=O)(=O)c2cccc(F)c2)[C@H]1CO | -28.7
Cc1ccccc1S(=O)(=O)N1CCCCN2[C@H](CO)[C@H](c3ccc(-c4cccc(F)c4)cc3)[C@@H]2C1 | -37.29
O=C(C[C@@H]1CC[C@H]2[C@@H](COC[C@H](O)CN2Cc2cccc(C(F)(F)F)c2)O1)NCc1ccc(Cl)cc1 | -68.41
C[C@@H]1CN([C@H](C)CO)C(=O)c2cc(NC(=O)Nc3ccc4c(c3)OCO4)ccc2O[C@@H](C)CCCCO[C@@H]1CN(C)Cc1ccc2c(c1)OCO2 | -50.27
COc1cccc(-c2ccc3c(c2)[C@H]2[C@H](CCN2C(=O)c2cccc(F)c2)[C@H](CO)N3)c1 | -27.02
C=CCN1C(=O)[C@@]2(O[C@@H](CCO)[C@H]([Si](C)(C)c3ccc(OC)cc3)[C@H]2C)c2cc(N3CCC3=O)ccc21 | -59.41
COc1cccc(-c2ccc([C@H]3[C@@H](CO)N4CCCCN(C(=O)c5ccc(F)cc5)C[C@H]34)cc2)c1 | -46.67
COc1cccc(C(=O)Nc2ccc3c(c2)OC[C@@H](C)N(C(=O)C2CCCC2)C[C@H](C)[C@@H](OC)CN(C)C3=O)c1 | -19.22
C/C=C/c1ccc2c(c1)O[C@H](CN(C)C(=O)Nc1ccc(C(F)(F)F)cc1)[C@@H](C)CN([C@@H](C)CO)S2(=O)=O | -78.71
O=C(NC1CCCC1)N1CCCCN2[C@H](CO)[C@H](c3ccc(-c4ccccc4)cc3)[C@@H]2C1 | -46.65
C[C@H](CO)N1C[C@H](C)[C@@H](CN(C)Cc2ccc(-c3ccccc3)cc2)Oc2ncc(C#C[C@@H](C)O)cc2C1=O | -38.6
CC(C)NC(=O)Nc1cccc2c1O[C@@H](CN(C)Cc1ccc(Cl)c(Cl)c1)[C@@H](C)CN([C@@H](C)CO)C2=O | -36.13
C[C@@H]1CN([C@@H](C)CO)C(=O)c2cc(NC(=O)NC3CCCCC3)ccc2O[C@@H](C)CCCCO[C@H]1CN(C)Cc1ccc2c(c1)OCO2 | -45.43
CCCC#Cc1ccc2c(c1)O[C@H](CN(C)Cc1ccccn1)[C@@H](C)CN([C@H](C)CO)S2(=O)=O | -36.76
COc1cccc(S(=O)(=O)Nc2ccc3c(c2)[C@@H]2C[C@H](CC(=O)NCc4ccc(Cl)cc4)O[C@@H](CO)[C@@H]2O3)c1 | -47.48
C[C@H](CO)N1C[C@H](C)[C@H](CN(C)S(=O)(=O)c2ccccc2)Oc2ncc(-c3cccc(C(F)(F)F)c3)cc2C1=O | -29.32
COc1ccc(CN(C)C[C@H]2OCCCC[C@H](C)Oc3ccc(NS(=O)(=O)c4ccc(F)cc4)cc3C(=O)N([C@H](C)CO)C[C@@H]2C)cc1 | -33.89